Measurements from US20170014372A1, “Drug Combination for Treatment of Proliferative Diseases” (ECOLE POLYTECHNIQUE FEDERALE DE LAUSANNE (EPFL), priority 2014, published 2017).
At least one compound was matched to its structure with a doubt left.

Tested on: panAKT, pMAPK and ribosomal protein S6 (pS6)
Assay: Western blot of panAKT, pMAPK and pS6 in ECRF24
Type: cell-based, human
Conditions: 5 hrs incubation
Description: Cells were seeded in a 6-well plate (30×10^4 cells per well) 24 h prior to the removal of medium and application of selected drug combinations or DMSO control (total volume of 2 mL). After an additional 5 hrs of incubation at the given conditions, medium was removed, cells were washed with PBS and 100 μl of buffer lysate was added (prepared on ice and composed of RIPA, protease inhibitors (1:1000) and sodium orthovanadate (1:1000)). Wells were then scratched and cell lysate solution was removed and put on ice for 10 min. Cell supernatant was isolated after centrifuging solution at 12,000 min^−1 for 15 min. A solution of blue buffer (4×)+u-Page Reducing Agent (10×) was added to supernatant and samples were kept at 95 ° C. for 5 min.
The samples were then run in an electrophoresis gel for 90 min at 125 V. The monoclonal antibodies included phosphorylated Akt (473), total Akt, phosphorylated MAPK, and phosphorylated S6 (235/236 hamster, Cell Signaling). […] The soluble protein concentration was determined by micro-BSA assay (Pierce, Rockford Ill.). […] Protein expression was quantified in Fiji by densitometry as previously described (39, 40). Results were expressed as a relative ratio between samples and control.

For `CNC(=O)c1ccccc1Sc1ccc2c(/C=C/c3ccccn3)n[nH]c2c1` [compound 3, axitinib], the pAkt protein was “increase”.
